In PMC4106786:
No constants are given. Whether binding was seen depends on the method and setting. In cells and extracts the contact can be indirect. Some binding calls cover weakened binding; strength is not graded here.

Chains of the proteins cited; added tags and fusions are not shown. Lines headed by an entry give the natural chain unless they say otherwise; changes in a name come on top. A line that says so, or that is headed by a name, gives the form on record, which may keep a tag or linker.
UniProt Q9H4E5: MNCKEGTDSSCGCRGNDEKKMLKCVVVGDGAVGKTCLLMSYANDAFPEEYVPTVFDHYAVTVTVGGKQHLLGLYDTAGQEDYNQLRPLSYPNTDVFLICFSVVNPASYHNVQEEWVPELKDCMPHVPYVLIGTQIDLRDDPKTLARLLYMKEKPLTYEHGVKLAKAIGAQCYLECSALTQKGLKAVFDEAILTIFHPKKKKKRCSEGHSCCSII
GFP-tagged daRhoJ (Q9H4E5, form named): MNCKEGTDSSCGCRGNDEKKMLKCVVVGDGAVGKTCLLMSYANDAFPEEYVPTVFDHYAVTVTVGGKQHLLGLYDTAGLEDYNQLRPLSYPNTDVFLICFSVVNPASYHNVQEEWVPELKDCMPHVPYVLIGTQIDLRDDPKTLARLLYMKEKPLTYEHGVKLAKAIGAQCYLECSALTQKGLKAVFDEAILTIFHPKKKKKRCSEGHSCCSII

Molecular target: GFP-tagged daRhoJ (UniProt Q9H4E5)
Assay: co-IP; lysates of HUVECs stably expressing GFP or GFP–daRhoJ incubated with GFP-trap A beads for 1 hour at 4°C in Rho-assay lysis buffer (1% NP40, 1% N-octyl-β-D-glucopyranoside, 25 mM HEPES pH 7.5, 30 mM MgCl2, 150 mM NaCl); western blot for β-PIX, GIT1 and GIT2

B1: GIT2 (protein, UniProt Q14161 1-759)
chain: MSKRLRSSEVCADCSGPDPSWASVNRGTFLCDECCSVHRSLGRHISQVRHLKHTPWPPTLLQMVETLYNNGANSIWEHSLLDPASIMSGRRKANPQDKVHPNKAEFIRAKYQMLAFVHRLPCRDDDSVTAKDLSKQLHSSVRTGNLETCLRLLSLGAQANFFHPEKGNTPLHVASKAGQILQAELLAVYGADPGTQDSSGKTPVDYARQGGHHELAERLVEIQYELTDRLAFYLCGRKPDHKNGQHFIIPQMADSSLDLSELAKAAKKKLQSLSNHLFEELAMDVYDEVDRRETDAVWLATQNHSALVTETTVVPFLPVNPEYSSTRNQGRQKLARFNAHEFATLVIDILSDAKRRQQGSSLSGSKDNVELILKTINNQHSVESQDNDQPDYDSVASDEDTDLETTASKTNRQKSLDSDLSDGPVTVQEFMEVKNALVASEAKIQQLMKVNNNLSDELRIMQKKLQTLQSENSNLRKQATTNVYQVQTGSEYTDTSNHSSLKRRPSARGSRPMSMYETGSGQKPYLPMGEASRPEESRMRLQPFPAHIGRSALVTSSSSLPSFPSTLSWSRDESARRASRLEKQNSTPESDYDNTPNDMEPDGMGSSRKGRQRSMVWPGDGLVPDTAEPHVAPSPTLPSTEDVIRKTEQITKNIQELLRAAQENKHDSYIPCSERIHVAVTEMAALFPKKPKSDMVRTSLRLLTSSAYRLQSECKKTLPGDPGSPTDVQLVTQQVIQCAYDIAKAAKQLVTITTKENNN
In the case of B1, the binding is reported as “binds”.
